These are yes or no findings as the source states them, for the method shown. Binding seen in cells or lysates may run through a third protein. Some binding calls cover weakened binding; strength is not graded here. For some of these results: Where a sequence is shown, tags or fusion partners need not be part of it.
Assays:
Assay in all cases: co-IP
[1] = target: FLAG-tagged MACIR P116A/Y117Q (UniProt Q96GV9)
[2] = target: FLAG-tagged MACIR P142A/Y143Q (UniProt Q96GV9)
FLAG-tagged MACIR wt = target: T1, FLAG-tagged MACIR wt (UniProt Q96GV9)
T1 sequence: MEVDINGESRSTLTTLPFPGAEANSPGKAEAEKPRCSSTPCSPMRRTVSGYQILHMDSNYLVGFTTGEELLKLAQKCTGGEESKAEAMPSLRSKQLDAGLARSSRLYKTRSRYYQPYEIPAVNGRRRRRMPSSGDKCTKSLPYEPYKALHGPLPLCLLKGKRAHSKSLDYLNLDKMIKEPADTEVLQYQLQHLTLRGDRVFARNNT

By UniProt entry, the sequences of proteins in these tests, tags left out.
UniProt Q92973: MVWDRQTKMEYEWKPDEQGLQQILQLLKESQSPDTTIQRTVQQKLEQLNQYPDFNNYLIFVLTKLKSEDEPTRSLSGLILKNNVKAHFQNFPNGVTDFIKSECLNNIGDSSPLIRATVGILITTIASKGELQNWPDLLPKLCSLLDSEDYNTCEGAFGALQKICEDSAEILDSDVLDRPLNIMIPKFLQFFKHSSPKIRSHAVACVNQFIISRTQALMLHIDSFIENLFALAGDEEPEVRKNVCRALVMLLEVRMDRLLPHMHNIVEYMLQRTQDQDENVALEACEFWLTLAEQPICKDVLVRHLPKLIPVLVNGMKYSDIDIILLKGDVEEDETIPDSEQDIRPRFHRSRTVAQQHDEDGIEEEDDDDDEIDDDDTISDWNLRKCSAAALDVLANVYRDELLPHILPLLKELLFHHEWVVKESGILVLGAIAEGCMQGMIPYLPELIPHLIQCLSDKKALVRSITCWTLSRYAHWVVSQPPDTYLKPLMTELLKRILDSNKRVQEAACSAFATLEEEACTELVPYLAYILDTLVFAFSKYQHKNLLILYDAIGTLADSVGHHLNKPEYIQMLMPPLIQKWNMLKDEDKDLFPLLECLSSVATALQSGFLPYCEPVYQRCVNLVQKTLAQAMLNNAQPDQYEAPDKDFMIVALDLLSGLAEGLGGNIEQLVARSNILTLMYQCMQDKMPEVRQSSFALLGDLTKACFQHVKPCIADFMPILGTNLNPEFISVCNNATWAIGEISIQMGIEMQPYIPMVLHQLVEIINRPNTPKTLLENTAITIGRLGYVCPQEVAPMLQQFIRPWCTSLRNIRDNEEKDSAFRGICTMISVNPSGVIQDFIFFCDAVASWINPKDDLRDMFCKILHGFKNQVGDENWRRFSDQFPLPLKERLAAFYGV
UniProt A6NIH7: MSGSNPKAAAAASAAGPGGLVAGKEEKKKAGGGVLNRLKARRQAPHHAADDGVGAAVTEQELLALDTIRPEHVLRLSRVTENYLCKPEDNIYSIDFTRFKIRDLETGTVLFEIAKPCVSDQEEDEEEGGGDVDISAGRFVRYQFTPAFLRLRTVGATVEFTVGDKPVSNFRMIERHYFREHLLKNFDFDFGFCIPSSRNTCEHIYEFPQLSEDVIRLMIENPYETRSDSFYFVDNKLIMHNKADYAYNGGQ

“nuclear transport receptor TNPO1 (from UniProt Q92973 1-898)” was tested, and the binding [1] was “no binding”, the binding [2] was “binds” and the binding (FLAG-tagged MACIR wt) was “binds”.
“UNC119 homolog B (from UniProt A6NIH7 1-251)” was tested, and the binding (FLAG-tagged MACIR wt) was “binds”.

From paper doi:10.1101/841999
